{"source": "the supplement of paper PMC7024190", "note": "Counter-ions that a name gives are not always drawn. The list shows a part of the results. Single values are uncertain here, since repeats match poorly.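 The cells were human embryonic kidney cells carrying a Renilla luciferase gene, driven by the HSV-TK promoter, on a plasmid put in briefly by transfection. This is the first-round screen of about ten thousand compounds, looking for ones that raise reporter output.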"}
{"test_system": "HEK 293FT", "assay": "log relative Renilla luciferase luminescence (reporter expression vs reference, reference not stated) (log (base not stated)); higher = higher recombinant reporter expression", "settings": "10 µM; time after transfection 48 h"}
{"smiles": "O=C(N/N=C/c1ccccc1O)c1ccccc1O", "note": "[Salicylidene salicylhydrazide]", "log": 0.193}
{"smiles": "O=C(O)CCCC[C@@H]1SC[C@@H]2NC(=O)N[C@@H]21", "note": "[D-Biotin]", "log": -0.401}
{"smiles": "[O-][n+]1c(CO)c(CO)[n+]([O-])c2ccccc21", "note": "[Dioxidine]", "log": 0.16}
{"smiles": "Cn1c(=O)c2[nH]c(Br)nc2n(C)c1=O", "note": "[Bromotheamine]", "log": 0.0555}
{"smiles": "Nc1nc(NC2CC2)c2ncn([C@H]3C=C[C@@H](CO)C3)c2n1", "note": "[Abacavir]", "log": -0.338}
{"smiles": "CN1CCN(c2cc3c(cc2F)c(=O)c(C(=O)O)cn3-c2ccc(F)cc2)CC1", "note": "[Difloxacin hydrochloride]", "log": -0.371}
{"smiles": "COC(=O)C1=C(C)NC(C)=C(C(=O)OC(C)(C)CN(C)CCC(c2ccccc2)c2ccccc2)C1c1cccc([N+](=O)[O-])c1", "note": "(stereo not drawn) [Lercanidipine Hydrochloride]", "log": -0.0795}
{"smiles": "COc1ccc(-n2c(C)c(C(C)=O)c3cc(O)ccc32)cc1", "note": "[Amendol]", "log": 0.112}
{"smiles": "OC(C#CCN1CCCC1)(c1ccccc1)c1ccccc1", "note": "[Butinoline]", "log": -0.204}
{"smiles": "COc1c(C(C)C)oc2cc3oc(=O)ccc3cc12", "note": "[Peucedanin]", "log": -0.305}
{"smiles": "CCCOc1ccc(C(=O)OCCN(CC)CC)cc1N", "note": "[Proxymetacaine Hydrochloride]", "log": 0.00428}
{"smiles": "CC1(C)O[C@@H]2C[C@H]3[C@@H]4CCC5=CC(=O)C=C[C@]5(C)[C@@]4(F)[C@@H](O)C[C@]3(C)[C@]2(C(=O)CO)O1", "note": "[Triamcinolone acetonide]", "log": 0.0279}
{"smiles": "O=C1c2ccccc2-c2n[nH]c3cccc1c23", "note": "[1,9-Pyrazoloanthrone]", "log": 0.167}
